Results are given in words; binding and its absence hold for the method and conditions named. Binding seen in cells or lysates may run through a third protein. These calls come from enrichment with a bait or labelling near it, and not all partners need be listed. Tags and fused reporters may be left off the sequences shown.

Protein sequences, listed by entry. Tags and fused reporters are not part of them. Residues count along the entry.
UniProt P35991, residues 2-659: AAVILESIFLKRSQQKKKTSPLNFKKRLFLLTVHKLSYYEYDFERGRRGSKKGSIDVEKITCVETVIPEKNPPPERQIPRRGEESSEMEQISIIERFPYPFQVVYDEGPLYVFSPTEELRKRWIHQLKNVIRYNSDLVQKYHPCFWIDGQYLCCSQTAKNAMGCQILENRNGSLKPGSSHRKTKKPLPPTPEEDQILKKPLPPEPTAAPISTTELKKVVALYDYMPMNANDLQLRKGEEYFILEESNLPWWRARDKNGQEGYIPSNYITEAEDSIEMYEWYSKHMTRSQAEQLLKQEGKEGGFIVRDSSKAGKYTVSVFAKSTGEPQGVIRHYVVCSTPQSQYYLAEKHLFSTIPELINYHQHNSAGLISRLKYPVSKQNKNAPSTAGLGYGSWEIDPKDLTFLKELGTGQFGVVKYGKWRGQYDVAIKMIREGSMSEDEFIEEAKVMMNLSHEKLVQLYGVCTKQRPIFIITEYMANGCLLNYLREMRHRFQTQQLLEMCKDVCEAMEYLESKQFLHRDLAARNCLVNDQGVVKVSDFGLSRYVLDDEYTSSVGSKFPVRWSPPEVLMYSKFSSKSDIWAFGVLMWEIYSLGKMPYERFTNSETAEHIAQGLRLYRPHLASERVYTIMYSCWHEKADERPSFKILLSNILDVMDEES

This is an account of results in patent publication US20100028355A1.

This assay has as its target Bruton's tyrosine kinase (BTK) (mouse) (UniProt P35991). Description: GST pull-down from mouse bone marrow cell lysate, Coomassie gel band identified by mass spectrometry.

B1: GST-HIMF fusion protein (protein, mouse, UniProt Q9EP95 24-111, looked up, not shown: a dimerising Fc or GST)
chain: DETIEIIVENKVKELLANPANYPSTVTKTLSCTSVKTMNRWASCPAGMTATGCACGFACGSWEIQSGDTCNCLCLLVDWTTARCCQLS
As to B1, the binding result is “binds”.
